Measurements from article PMC9871011.

Amino acid sequences for entries named in this document (tags omitted).
UniProt Q9EPU0: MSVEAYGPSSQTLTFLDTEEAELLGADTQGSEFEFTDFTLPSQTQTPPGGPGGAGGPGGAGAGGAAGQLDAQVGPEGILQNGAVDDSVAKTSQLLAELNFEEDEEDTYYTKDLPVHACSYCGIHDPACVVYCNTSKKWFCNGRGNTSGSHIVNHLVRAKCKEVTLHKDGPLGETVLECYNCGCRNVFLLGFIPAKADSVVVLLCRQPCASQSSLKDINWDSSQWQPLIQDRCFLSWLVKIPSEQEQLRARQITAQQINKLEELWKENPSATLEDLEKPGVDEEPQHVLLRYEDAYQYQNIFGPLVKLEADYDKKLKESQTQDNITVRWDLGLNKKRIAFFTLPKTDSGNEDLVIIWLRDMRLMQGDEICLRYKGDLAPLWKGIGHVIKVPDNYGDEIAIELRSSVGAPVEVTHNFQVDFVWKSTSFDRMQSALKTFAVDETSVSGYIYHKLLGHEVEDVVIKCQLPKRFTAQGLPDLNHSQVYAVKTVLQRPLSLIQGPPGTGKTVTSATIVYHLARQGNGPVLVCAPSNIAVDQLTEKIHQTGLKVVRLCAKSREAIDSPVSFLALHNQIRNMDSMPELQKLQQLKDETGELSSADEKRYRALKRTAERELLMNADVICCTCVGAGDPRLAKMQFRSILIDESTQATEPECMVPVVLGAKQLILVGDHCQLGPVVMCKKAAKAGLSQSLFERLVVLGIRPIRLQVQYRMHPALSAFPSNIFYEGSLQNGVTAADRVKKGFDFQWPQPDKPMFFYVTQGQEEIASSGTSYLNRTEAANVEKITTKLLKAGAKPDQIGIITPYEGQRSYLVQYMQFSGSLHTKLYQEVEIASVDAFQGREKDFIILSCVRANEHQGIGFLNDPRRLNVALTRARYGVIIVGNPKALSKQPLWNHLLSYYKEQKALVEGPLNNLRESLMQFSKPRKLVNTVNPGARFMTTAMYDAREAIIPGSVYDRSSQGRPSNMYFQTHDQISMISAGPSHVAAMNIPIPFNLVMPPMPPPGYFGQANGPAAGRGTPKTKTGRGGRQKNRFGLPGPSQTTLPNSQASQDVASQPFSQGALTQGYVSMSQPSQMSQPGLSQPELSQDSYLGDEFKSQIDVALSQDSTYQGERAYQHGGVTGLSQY
UniProt P10630: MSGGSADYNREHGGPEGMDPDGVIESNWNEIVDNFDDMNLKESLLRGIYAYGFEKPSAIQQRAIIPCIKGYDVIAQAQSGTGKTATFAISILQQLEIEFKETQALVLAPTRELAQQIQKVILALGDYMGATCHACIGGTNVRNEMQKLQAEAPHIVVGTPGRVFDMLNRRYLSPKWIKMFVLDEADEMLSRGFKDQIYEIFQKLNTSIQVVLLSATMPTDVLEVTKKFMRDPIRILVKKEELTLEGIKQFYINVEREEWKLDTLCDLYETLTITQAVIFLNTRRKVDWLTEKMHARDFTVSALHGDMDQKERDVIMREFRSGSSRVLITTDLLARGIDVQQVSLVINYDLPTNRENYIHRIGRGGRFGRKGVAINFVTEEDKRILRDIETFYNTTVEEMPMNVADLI
UniProt P70372: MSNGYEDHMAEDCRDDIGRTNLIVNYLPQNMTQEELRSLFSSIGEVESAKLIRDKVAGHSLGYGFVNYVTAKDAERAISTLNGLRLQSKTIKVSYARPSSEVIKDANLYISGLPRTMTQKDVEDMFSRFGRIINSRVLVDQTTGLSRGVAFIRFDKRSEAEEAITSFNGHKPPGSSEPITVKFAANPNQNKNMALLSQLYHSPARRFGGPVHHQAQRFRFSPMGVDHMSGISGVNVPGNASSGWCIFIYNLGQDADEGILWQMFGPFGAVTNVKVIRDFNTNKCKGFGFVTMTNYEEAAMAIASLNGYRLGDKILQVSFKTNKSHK
UniProt P29341: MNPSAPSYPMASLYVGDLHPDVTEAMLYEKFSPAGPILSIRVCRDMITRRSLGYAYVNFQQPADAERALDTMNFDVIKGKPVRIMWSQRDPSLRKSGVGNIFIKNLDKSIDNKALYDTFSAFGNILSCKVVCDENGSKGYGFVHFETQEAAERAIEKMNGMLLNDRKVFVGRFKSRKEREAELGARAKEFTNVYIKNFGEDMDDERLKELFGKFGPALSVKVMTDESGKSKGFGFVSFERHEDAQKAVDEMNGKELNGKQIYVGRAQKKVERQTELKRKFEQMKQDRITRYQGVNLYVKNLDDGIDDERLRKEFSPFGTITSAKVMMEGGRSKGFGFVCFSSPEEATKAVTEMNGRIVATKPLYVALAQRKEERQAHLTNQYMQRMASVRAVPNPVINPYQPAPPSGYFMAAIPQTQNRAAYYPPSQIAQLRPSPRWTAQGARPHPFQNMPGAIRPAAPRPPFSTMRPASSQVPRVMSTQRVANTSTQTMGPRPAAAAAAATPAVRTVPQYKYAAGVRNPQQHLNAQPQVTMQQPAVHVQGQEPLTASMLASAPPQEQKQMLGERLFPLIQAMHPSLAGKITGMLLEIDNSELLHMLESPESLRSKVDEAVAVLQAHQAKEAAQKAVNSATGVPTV
UniProt A2AJ72: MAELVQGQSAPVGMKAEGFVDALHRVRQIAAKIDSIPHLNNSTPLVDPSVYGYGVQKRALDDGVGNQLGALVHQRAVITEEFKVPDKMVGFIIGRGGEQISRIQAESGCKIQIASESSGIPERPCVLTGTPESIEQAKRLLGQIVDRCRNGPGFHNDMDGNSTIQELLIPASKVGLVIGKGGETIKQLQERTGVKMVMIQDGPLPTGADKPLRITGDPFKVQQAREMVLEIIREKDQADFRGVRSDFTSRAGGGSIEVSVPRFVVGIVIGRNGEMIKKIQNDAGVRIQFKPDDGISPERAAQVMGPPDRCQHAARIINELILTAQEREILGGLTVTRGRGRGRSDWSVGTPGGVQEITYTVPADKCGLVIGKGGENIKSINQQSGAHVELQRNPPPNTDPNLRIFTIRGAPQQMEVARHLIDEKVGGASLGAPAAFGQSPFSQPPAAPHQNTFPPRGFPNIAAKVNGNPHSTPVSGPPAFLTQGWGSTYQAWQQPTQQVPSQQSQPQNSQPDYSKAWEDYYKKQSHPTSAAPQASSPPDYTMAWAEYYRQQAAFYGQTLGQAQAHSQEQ

target: T1, FLAG-tagged MEX3A (endogenous MEX3A protein with a 3X-FLAG peptide fused to its C-terminal region) (mouse (endogenous in neurosphere cultures of C57BL/6J knock-in mice)) (UniProt G3UYU0); experiment: affinity purification with mass spectrometry; anti-FLAG antibody cross-linked to Protein G Dynabeads; lysates (RIPA buffer) of formaldehyde-crosslinked (0.5%, 5 min) Mex3a^FLAG/FLAG neurospheres, overnight at 4 °C; LC-MS/MS of eluted proteins; only proteins present in all FLAG-tagged replicates and not in wild-type controls counted
T1 sequence: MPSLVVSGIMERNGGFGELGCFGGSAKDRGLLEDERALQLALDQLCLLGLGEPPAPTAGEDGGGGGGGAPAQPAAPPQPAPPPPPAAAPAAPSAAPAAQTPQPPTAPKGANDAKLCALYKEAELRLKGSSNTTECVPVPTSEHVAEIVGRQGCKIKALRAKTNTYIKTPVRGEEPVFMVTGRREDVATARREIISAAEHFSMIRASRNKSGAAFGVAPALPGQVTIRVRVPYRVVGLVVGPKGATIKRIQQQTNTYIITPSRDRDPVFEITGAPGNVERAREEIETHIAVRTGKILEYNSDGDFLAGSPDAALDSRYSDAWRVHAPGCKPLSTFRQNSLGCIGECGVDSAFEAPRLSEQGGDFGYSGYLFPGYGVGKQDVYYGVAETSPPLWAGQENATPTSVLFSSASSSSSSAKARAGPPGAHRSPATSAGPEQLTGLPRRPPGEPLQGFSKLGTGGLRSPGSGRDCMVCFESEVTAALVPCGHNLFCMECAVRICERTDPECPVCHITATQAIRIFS

binding | Substance
binds | UPF1 (from UniProt Q9EPU0 1-1124)
binds | EIF4A2 (from UniProt P10630 1-407)
binds | ELAVL1 (from UniProt P70372 1-326)
binds | PABPC1 (from UniProt P29341 1-636)
binds | FUBP3 (from UniProt A2AJ72 1-569)

No constants are given. Whether binding was seen depends on the method and setting. Binding seen in cells or lysates may run through a third protein. Here binding means that the protein was enriched with, or labelled near, the bait; the list need not be complete. Sequences can lack the tags named with a protein.
